In assay [1] the target is Ras GTPase-activating protein SH3 domain-binding protein 1 (human (endogenous in MDA-MB-231 and MCF-7)) (UniProt Q13283). The experiment in a line: co-IP; endogenous proteins in MCF-7 cells; data not shown.
For assay [2] the target is unchanged. The experiment in a line: co-IP; endogenous proteins, MDA-MB-231 whole-cell extracts in RIPA buffer, 1 mg total protein, antibodies against G3BP1, Smad2, Smad3 or Smad4 overnight at 4°C, Protein A/G PLUS-Agarose, immunoblot; reciprocal; also cells transfected with Smad3 siRNA (interactions not disrupted).

Protein sequences, listed by entry. Tags and fused reporters are not part of them.
UniProt Q13283: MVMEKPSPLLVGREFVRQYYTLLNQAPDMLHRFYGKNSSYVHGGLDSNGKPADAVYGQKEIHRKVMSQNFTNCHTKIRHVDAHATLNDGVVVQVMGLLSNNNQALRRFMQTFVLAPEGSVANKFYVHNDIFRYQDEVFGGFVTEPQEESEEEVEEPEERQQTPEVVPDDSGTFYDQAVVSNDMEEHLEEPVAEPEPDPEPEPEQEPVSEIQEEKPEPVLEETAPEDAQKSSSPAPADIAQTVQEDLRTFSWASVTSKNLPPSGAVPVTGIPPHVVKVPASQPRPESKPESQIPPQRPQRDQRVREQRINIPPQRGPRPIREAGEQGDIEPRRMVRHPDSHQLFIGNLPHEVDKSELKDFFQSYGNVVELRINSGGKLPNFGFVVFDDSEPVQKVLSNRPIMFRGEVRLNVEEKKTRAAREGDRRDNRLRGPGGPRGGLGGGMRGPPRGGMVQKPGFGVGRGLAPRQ
UniProt Q15796: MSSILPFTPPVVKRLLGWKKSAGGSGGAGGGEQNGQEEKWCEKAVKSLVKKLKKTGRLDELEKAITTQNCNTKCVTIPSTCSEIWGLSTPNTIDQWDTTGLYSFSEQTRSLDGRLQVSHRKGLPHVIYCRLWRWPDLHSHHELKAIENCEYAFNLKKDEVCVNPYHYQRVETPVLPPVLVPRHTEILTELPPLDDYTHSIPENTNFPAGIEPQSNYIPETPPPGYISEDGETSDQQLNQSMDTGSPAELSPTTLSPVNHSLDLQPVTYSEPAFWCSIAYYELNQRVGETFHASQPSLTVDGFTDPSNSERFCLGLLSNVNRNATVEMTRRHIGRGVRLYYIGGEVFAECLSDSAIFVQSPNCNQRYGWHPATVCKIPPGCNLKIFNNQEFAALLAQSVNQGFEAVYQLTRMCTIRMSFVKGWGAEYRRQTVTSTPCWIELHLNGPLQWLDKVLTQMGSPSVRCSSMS
UniProt Q13485: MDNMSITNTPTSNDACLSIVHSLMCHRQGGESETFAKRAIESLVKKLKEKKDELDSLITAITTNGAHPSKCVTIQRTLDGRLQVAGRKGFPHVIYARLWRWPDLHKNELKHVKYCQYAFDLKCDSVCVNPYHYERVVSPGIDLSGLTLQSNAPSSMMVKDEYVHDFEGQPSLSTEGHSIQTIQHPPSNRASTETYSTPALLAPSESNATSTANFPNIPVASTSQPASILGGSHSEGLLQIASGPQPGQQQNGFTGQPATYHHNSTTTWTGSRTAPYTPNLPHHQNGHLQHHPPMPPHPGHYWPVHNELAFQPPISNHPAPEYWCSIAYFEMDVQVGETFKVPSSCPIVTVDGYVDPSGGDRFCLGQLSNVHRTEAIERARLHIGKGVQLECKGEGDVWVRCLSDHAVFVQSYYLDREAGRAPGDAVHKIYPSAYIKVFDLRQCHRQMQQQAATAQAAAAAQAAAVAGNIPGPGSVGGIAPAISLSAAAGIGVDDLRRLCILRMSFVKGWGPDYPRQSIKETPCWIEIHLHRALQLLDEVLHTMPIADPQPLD

This note sets out measurements from PMC4627290.

Results are given in words; binding and its absence hold for the method and conditions named. Binding seen in cells or lysates may run through a third protein. Some entries that bind do so weakly or less than the wild type.

Regarding Smad2 (from UniProt Q15796 1-467), the binding entry in assay [1] and in assay [2] was “binds” in each case.
With Smad4 (from UniProt Q13485 1-552), the binding result in assay [1] and in assay [2] was “binds” in each case.
